Source: patent US20090054344A1
No constants are given. Whether binding was seen depends on the method and setting. Some entries that bind do so weakly or less than the wild type.

The chains behind the UniProt entries cited, without tags or fusion partners. Where a name states a change or a piece, a line headed by the entry shows the natural chain unless it says otherwise. Residues count along the entry.
UniProt P08253, residues 110-660: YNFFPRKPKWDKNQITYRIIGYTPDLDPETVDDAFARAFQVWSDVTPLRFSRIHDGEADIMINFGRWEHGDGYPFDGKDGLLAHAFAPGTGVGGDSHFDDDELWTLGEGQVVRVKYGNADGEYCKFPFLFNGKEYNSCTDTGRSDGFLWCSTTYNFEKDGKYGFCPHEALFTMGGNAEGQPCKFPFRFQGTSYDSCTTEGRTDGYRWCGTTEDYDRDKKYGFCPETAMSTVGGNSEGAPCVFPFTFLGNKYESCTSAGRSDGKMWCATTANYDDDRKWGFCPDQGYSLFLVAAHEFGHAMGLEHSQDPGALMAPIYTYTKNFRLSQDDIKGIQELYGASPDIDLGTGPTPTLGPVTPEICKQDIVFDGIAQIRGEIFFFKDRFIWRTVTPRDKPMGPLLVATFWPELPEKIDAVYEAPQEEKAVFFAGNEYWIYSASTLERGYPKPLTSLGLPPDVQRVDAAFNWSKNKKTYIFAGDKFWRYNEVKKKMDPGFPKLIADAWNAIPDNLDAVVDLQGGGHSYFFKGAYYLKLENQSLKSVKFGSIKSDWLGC
UniProt P02462: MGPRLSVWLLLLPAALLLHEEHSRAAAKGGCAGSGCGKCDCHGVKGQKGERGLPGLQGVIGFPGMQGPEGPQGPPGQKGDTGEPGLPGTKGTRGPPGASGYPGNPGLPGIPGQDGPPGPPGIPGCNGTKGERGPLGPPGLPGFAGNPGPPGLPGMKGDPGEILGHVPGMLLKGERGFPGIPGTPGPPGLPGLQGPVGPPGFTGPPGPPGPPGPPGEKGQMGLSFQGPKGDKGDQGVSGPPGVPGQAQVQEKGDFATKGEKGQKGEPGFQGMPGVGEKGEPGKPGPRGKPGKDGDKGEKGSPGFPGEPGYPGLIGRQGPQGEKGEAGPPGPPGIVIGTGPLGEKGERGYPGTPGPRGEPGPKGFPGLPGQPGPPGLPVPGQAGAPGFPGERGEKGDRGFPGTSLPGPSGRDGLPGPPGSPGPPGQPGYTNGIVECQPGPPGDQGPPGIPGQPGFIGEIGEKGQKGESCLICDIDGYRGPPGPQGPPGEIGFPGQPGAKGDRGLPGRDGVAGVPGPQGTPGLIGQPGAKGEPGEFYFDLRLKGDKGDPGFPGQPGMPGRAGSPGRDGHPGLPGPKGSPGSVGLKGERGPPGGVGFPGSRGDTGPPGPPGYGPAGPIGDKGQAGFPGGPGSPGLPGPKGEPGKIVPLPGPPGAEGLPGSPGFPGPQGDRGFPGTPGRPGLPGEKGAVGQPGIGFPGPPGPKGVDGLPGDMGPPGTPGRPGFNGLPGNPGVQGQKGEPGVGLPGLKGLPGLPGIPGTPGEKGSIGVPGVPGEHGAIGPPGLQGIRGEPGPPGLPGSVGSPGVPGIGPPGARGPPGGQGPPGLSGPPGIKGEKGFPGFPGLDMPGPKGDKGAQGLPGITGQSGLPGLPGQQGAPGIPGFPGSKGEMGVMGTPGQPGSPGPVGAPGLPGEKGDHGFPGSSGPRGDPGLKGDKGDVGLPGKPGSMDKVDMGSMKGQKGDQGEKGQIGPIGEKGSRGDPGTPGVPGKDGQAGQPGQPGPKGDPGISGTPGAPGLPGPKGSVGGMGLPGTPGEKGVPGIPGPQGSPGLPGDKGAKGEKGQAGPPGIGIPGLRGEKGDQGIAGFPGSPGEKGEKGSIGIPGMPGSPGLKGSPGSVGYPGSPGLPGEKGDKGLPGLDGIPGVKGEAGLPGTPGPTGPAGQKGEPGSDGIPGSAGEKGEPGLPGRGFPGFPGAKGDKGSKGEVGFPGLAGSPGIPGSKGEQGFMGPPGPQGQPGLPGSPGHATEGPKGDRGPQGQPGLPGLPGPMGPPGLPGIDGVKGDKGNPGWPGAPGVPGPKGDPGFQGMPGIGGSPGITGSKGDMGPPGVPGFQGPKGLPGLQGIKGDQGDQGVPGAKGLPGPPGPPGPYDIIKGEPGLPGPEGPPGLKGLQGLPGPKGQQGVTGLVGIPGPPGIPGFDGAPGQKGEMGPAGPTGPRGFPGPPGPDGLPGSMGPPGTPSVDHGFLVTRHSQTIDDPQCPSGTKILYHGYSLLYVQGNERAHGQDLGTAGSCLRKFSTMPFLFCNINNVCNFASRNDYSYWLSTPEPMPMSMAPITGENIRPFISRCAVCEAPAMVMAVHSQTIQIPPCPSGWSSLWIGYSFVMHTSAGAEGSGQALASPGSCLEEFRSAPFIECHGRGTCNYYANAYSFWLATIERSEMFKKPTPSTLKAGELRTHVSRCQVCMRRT

Target: MMP-2 (UniProt P08253)
Assay: inferred from inhibition of Matrigel degradation by MMP-2

binding: binds
Substance: human Arresten (way of production not stated for the assay) (from UniProt P02462 1441-1669) (ligand)
